Data source: PubChem BioAssay AID1259254 (NCATS, 2017)

Assay: 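Gene knock-downs that lead to re-replication, shown by excess G2 DNA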 (primary screen)
Cells: human HCT116 colorectal cancer cells
Knock-down reagent: single siRNA against human genes
Timing: 3 days
Measured: 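Nuclei stained with Hoechst and imaged; cell-cycle phase assigned by DNA content; G2 share scaled per plate, non-targeting siRNA 0%, GMNN siRNA 100%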
Scale: G2 robust z-score: higher = more G2 cells, more excess DNA replication
Hit rule: 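Active siRNAs have a G2 robust z of 5 or more median absolute deviations over the median, which in these data means about 38% or higher of GMNN control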
Shown is an unselected part of about 59,000 deposited reagents. About 1,550 of all reagents (2.6%) were called active. 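G2 share is only a proxy for re-replication; each gene was hit by three separate siRNAs, and active genes were retested.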 Reagents against one gene are numbered here. Not all columns of the deposit are shown. Not given: the amount of reagent.

NPHP4 (nephrocystin 4) #1
- G2 robust z-score: -0.597
- Call: inactive

NPHP4 (nephrocystin 4) #2
- G2 robust z-score: -0.188
- Call: inactive

NPHP4 (nephrocystin 4) #3
- G2 robust z-score: 0.238
- Call: inactive

ADD3 (adducin 3) #1
- G2 robust z-score: 1.57
- Call: inactive

ADD3 (adducin 3) #2
- G2 robust z-score: -0.214
- Call: inactive

ADD3 (adducin 3) #3
- G2 robust z-score: -1.22
- Call: inactive

FAM221A (family with sequence similarity 221 member A) #1
- G2 robust z-score: 2.81
- Call: inactive

FAM221A (family with sequence similarity 221 member A) #2
- G2 robust z-score: -0.895
- Call: inactive

FAM221A (family with sequence similarity 221 member A) #3
- G2 robust z-score: 0.327
- Call: inactive

CFAP95 (cilia and flagella associated protein 95) #1
- G2 robust z-score: 0.988
- Call: inactive

CFAP95 (cilia and flagella associated protein 95) #2
- G2 robust z-score: -0.331
- Call: inactive

CFAP95 (cilia and flagella associated protein 95) #3
- G2 robust z-score: -0.36
- Call: inactive

ICOS (inducible T cell costimulator) #1
- G2 robust z-score: -0.257
- Call: inactive

ICOS (inducible T cell costimulator) #2
- G2 robust z-score: 0.572
- Call: inactive

ICOS (inducible T cell costimulator) #3
- G2 robust z-score: 2.96
- Call: inactive

FSHR (follicle stimulating hormone receptor) #1
- G2 robust z-score: 0.0327
- Call: inactive

FSHR (follicle stimulating hormone receptor) #2
- G2 robust z-score: 0.261
- Call: inactive

FSHR (follicle stimulating hormone receptor) #3
- G2 robust z-score: 0.2
- Call: inactive

3 consecutive reagents already listed, for reference:
FAM221A (family with sequence similarity 221 member A) #3
- G2 robust z-score: 0.327
- Call: inactive

CFAP95 (cilia and flagella associated protein 95) #1
- G2 robust z-score: 0.988
- Call: inactive

CFAP95 (cilia and flagella associated protein 95) #2
- G2 robust z-score: -0.331
- Call: inactive
